These are yes or no findings as the source states them, for the method shown. In cells and extracts the contact can be indirect. Here binding means that the protein was enriched with, or labelled near, the bait; the list need not be complete. For some assays here: Tags and fused reporters may be left off the sequences shown.
What was measured:
[1] = molecular target: MYOSIN BINDING PROTEIN14 fused with GFP (MYOB14-GFP) (A. thaliana) (UniProt Q9SVR1); test: affinity purification with mass spectrometry; extracts of 3-week-old A. thaliana plants expressing MYOB2-GFP or MYOB14-GFP in lysis buffer (150 mM NaCl, 1% Ecosurf EH-9, 50 mM Tris-HCl pH 8.0); anti-GFP microbeads (uMACS), 4°C 30 min; eluted proteins identified by LC-MS/MS
[2] = molecular target: T1, MYOSIN BINDING PROTEIN2 fused with GFP (MYOB2-GFP) (A. thaliana) (UniProt Q9CAC4); test: as above
T1 sequence: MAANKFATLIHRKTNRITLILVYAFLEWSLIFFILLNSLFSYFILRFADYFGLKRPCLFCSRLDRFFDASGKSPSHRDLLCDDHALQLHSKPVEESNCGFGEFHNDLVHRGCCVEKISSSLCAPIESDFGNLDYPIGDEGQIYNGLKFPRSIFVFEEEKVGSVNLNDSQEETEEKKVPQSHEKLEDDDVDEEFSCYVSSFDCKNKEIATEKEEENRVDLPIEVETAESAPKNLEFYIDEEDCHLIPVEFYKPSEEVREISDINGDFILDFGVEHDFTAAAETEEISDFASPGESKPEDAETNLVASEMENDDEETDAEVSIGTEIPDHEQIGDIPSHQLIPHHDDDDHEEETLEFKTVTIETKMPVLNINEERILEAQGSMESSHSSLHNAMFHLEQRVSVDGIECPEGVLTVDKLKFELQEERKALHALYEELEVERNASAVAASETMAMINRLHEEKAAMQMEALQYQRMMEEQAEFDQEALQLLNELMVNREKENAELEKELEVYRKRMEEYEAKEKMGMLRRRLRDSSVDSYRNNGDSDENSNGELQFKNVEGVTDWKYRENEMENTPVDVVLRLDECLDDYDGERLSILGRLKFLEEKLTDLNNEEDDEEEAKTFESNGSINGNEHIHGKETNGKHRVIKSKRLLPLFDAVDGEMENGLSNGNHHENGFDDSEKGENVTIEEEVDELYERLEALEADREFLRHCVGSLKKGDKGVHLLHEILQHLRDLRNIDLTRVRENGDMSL

By UniProt entry, the sequences of proteins in these tests, tags left out.
UniProt F4K5J1: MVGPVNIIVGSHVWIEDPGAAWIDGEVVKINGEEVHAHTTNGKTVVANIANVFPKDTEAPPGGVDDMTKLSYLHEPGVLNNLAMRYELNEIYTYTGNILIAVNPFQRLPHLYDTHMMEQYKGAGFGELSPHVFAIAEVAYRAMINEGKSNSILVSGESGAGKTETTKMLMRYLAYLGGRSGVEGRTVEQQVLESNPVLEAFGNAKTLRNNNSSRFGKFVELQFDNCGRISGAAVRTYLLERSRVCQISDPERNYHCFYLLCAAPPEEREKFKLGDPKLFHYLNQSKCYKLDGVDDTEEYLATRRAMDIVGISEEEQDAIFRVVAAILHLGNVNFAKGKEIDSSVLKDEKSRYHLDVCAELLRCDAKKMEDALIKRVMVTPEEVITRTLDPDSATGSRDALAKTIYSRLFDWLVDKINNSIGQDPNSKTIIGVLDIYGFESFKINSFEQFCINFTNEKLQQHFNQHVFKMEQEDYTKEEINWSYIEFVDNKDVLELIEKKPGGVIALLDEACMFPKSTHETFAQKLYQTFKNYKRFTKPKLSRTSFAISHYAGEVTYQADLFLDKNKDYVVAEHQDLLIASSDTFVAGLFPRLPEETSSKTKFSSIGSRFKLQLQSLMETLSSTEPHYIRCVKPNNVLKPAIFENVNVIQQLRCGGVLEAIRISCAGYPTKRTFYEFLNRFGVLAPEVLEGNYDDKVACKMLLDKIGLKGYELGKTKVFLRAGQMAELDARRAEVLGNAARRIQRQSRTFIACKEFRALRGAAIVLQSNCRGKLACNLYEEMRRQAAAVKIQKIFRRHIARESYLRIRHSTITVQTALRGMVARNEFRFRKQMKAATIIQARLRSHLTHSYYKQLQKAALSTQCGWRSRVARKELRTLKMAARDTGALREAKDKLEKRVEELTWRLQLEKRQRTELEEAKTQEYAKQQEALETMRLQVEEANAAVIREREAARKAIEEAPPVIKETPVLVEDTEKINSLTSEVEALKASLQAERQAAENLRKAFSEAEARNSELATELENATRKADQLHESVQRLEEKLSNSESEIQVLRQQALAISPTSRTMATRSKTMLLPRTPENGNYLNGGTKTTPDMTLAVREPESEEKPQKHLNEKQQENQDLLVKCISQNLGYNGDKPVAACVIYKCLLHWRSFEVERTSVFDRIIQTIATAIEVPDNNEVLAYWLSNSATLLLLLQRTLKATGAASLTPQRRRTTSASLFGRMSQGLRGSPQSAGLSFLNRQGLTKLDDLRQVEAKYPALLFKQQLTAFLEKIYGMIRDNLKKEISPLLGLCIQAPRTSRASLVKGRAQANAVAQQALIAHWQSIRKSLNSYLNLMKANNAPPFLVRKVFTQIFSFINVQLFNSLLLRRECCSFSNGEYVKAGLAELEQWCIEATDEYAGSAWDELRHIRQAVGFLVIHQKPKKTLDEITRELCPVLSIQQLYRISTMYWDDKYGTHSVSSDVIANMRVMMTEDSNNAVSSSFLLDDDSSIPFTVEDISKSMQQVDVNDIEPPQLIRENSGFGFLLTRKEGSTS

myosin XIK (from UniProt F4K5J1 1-1531)
binding [1]: binds | binding [2]: binds
